In article PMC10902300:
Read-outs that look alike come from different tables or passages of the source. Results are given in words; binding and its absence hold for the method and conditions named. Binding seen in cells or lysates may run through a third protein. Some entries that bind do so weakly or less than the wild type. For some assays here: Tags and fused reporters may be left off the sequences shown. One block for each molecule: values may come before it.

Amino acid sequences for entries named in this document (tags omitted).
UniProt P17542: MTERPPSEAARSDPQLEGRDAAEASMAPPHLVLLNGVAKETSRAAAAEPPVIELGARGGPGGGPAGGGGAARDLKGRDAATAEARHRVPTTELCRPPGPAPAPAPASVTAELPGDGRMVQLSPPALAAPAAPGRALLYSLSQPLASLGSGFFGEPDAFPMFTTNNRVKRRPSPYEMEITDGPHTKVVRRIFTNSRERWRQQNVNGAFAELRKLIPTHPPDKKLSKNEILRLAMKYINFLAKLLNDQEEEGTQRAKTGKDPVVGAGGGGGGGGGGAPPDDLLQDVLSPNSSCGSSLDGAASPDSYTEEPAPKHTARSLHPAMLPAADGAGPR
UniProt Q13547: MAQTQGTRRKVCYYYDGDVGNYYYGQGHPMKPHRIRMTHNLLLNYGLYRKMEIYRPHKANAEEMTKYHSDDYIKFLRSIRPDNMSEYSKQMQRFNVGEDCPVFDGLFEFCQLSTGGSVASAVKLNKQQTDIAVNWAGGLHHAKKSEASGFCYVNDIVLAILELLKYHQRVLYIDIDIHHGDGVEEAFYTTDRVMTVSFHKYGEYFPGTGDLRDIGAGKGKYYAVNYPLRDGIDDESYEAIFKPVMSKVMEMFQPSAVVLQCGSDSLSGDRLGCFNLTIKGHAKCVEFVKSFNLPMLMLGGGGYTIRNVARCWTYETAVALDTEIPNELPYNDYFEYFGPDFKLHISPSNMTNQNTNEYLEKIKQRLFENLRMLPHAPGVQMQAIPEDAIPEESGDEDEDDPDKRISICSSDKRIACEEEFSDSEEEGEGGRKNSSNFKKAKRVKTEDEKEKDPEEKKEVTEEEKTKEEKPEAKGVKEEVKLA
UniProt Q92769: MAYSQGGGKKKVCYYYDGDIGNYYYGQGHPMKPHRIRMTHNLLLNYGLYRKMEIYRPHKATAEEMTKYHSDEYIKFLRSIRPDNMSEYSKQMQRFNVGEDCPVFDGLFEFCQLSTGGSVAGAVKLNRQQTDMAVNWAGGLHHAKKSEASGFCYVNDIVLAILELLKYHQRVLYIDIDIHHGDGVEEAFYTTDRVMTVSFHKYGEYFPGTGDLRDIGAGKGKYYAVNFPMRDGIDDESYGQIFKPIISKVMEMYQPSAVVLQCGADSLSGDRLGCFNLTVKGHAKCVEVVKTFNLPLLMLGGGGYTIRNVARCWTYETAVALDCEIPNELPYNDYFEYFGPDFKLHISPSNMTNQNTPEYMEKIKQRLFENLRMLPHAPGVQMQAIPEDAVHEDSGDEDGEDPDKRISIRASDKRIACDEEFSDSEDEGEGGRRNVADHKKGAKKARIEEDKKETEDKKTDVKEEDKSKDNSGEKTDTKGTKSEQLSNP

Key:
[1] = target: Tcf3 in Jurkat cells (human (endogenous in Jurkat)) (UniProt P15923); experiment: co-IP; Pierce co-IP kit; lysates of Jurkat cells, GFP-Id2^WT and GFP-Id2^ΔHLH Jurkat cells, with or without anti-CD3 antibody; IP lysis buffer (0.025 M Tris, 0.15 M NaCl, 0.001 M EDTA, 1% NP-40, 5% glycerol); antibody-conjugated resin (anti-GFP, anti-Flag or anti-Tcf3) overnight at 4 °C; immunoblot
[2] = target: Tal1 in Jurkat cells (human (endogenous in Jurkat)) (UniProt P17542); experiment: as above
[3] = target: Tcf3 in Jurkat cells (human (endogenous in Jurkat)) (UniProt P15923); experiment: as above; remark: listed apart in the source
[4] = target: T1, Flag-Tcf3, Flag-full length (1-651aa) (UniProt P15923); experiment: co-IP; HEK-293 cells transfected with the plasmids (fixed Flag-Tcf3 and Tal1, increasing Id2; also PMA plus ionomycin-stimulated HEK-293 cells); Pierce co-IP kit, antibody-conjugated resin overnight at 4 °C; immunoblot
T1 sequence: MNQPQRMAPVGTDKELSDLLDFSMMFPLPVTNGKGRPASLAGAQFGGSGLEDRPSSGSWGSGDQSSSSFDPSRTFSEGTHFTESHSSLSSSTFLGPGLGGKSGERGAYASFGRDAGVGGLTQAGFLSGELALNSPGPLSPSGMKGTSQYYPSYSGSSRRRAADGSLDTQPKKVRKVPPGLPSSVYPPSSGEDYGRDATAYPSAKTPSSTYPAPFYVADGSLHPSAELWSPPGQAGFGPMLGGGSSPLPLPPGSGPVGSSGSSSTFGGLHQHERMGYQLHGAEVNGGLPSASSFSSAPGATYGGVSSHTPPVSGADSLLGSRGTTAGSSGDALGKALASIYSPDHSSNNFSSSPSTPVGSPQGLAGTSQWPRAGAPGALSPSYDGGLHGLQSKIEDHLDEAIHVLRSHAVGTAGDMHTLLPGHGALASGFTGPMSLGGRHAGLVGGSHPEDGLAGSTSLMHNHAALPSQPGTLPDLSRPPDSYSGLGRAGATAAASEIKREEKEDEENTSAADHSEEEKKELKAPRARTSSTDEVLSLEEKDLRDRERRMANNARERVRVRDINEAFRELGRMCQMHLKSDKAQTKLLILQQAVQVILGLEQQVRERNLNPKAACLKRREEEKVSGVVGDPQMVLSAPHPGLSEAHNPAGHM

Molecule: HDAC1 in Jurkat cells (from UniProt Q13547 1-482) (enzyme)
binding [1]: binds

Molecule: HDAC2 in Jurkat cells (from UniProt Q92769 1-488) (enzyme)
binding [1]: binds

The next lines start with the values.

binding [2]: binds | binding [3]: binds
B1: GFP-Id2^WT (inhibitor of DNA binding protein 2) (protein, UniProt Q02363 1-134)
chain: MKAFSPVRSVRKNSLSDHSLGISRSKTPVDDPMSLLYNMNDCYSKLKELVPSIPQNKKVSKMEILQHVIDYILDLQIALDSHPTIVSLHHQRPGQNQASRTPLTTLNTDISILSLQASEFPSELMSNDSKALCG

binding [4]: binds
B2: Id2 expressed in HEK-293 cells (protein, UniProt Q02363 1-134)
chain: B1 chain
